Test results published in patent publication US12351591B2, “KRas inhibitors” (ELI LILLY AND COMPANY, priority 2022, dated 2025).
Some results were stated once for a whole list of compounds, not compound by compound.

molecular target: T1, KRas wild-type (Homo sapiens, UniProt P01116); assay: MKN-45 Cellular Active RAS GTPase ELISA (KRas Wild-type); type: cell-based; details: PANC-1 versus MKN-45 Cellular Active RAS GTPase ELISA
T1 construct: host or cells: MKN-45

Structure (SMILES)	selective inhibition preference for KRas G12D mutant over KRas wild-type
[2H]C([2H])([2H])OCCN1CC2CCC(C1)N2c1nc(OC[C@@]23CCCN2C[C@H](F)C3)nc2c(F)c(-c3ncc(F)c4sc(N)c(C#N)c34)c3c(c12)COC3 [Example 327, 2-Amino-7-fluoro-4-[5-fluoro-3-[[(2R,8S)-2-fluoro-1,2,3,5,6,7-hexahydropyrrolizin-8-yl]methoxy]-1-[3-[2-(trideuteriomethoxy)ethyl]-3,8-diazabicyclo[3.2.1]octan-8-yl]-7,9-dihydrofuro[3,4-f]quinazolin-6-yl]thieno[3,2-c]pyridine-3-carbonitrile]	greater than 10 fold
CN1CC2CC(C1)N2c1nc(OC[C@@]23CCCN2C[C@H](F)C3)nc2c(F)c(-c3nccc4sc(N)c(C#N)c34)c3c(c12)COC3 [Example 52, 2-Amino-4-[5-fluoro-3-[[(2R,8S)-2-fluoro-1,2,3,5,6,7-hexahydropyrrolizin-8-yl]methoxy]-1-(3-methyl-3,6-diazabicyclo[3.1.1]heptan-6-yl)-7,9-dihydrofuro[3,4-f]quinazolin-6-yl]thieno[3,2-c]pyridine-3-carbonitrile]	greater than 10 fold
COc1nc(N2C3CCC2CN(C[C@H](C)O)C3)c2c3c(c(-c4cccc5sc(N)c(C#N)c45)c(F)c2n1)COC3 [Example 57, 2-Amino-4-[5-fluoro-1-[3-[(2S)-2-hydroxypropyl]-3,8-diazabicyclo[3.2.1]octan-8-yl]-3-methoxy-7,9-dihydrofuro[3,4-f]quinazolin-6-yl]benzothiophene-3-carbonitrile]	greater than 10 fold
C[C@@H](O)CN1CC2CCC(C1)N2c1nc(OC[C@@]23CCCN2C[C@H](F)C3)nc2c(F)c(-c3ncc(F)c4sc(N)c(C#N)c34)c3c(c12)COC3 [Example 172, 2-Amino-7-fluoro-4-[5-fluoro-3-[[(2R,8S)-2-fluoro-1,2,3,5,6,7-hexahydropyrrolizin-8-yl]methoxy]-1-[3-[(2R)-2-hydroxypropyl]-3,8-diazabicyclo[3.2.1]octan-8-yl]-7,9-dihydrofuro[3,4-f]quinazolin-6-yl]thieno[3,2-c]pyridine-3-carbonitrile]	greater than 10 fold
COCCOc1nc(N2C3CCC2CNC3)c2c3c(c(-c4ccc(F)c5sc(N)c(C#N)c45)c(F)c2n1)COC3 [Example 10, 2-Amino-4-[1-(3,8-diazabicyclo[3.2.1]octan-8-yl)-5-fluoro-3-(2-methoxyethoxy)-7,9-dihydrofuro[3,4-f]quinazolin-6-yl]-7-fluoro-benzothiophene-3-carbonitrile]	greater than 10 fold
N#Cc1c(N)sc2c(F)cnc(-c3c4c(c5c(N6C7CCC6CN(CC6(O)CC6)C7)nc(OC[C@@]67CCCN6C[C@H](F)C7)nc5c3F)COC4)c12 [Example 336, 2-Amino-7-fluoro-4-[5-fluoro-3-[[(2R,8S)-2-fluoro-1,2,3,5,6,7-hexahydropyrrolizin-8-yl]methoxy]-1-[3-[(1-hydroxycyclopropyl)methyl]-3,8-diazabicyclo[3.2.1]octan-8-yl]-7,9-dihydrofuro[3,4-f]quinazolin-6-yl]thieno[3,2-c]pyridine-3-carbonitrile]	greater than 10 fold
CO[C@H](C)CN1CC2CCC(C1)N2c1nc(OC[C@@]23CCCN2C[C@H](F)C3)nc2c(F)c(-c3cccc4sc(N)c(C#N)c34)c3c(c12)COC3 [Example 213, 2-Amino-4-[5-fluoro-3-[[(2R,8S)-2-fluoro-1,2,3,5,6,7-hexahydropyrrolizin-8-yl]methoxy]-1-[3-[(2R)-2-methoxypropyl]-3,8-diazabicyclo[3.2.1]octan-8-yl]-7,9-dihydrofuro[3,4-f]quinazolin-6-yl]benzothiophene-3-carbonitrile]	greater than 10 fold
C[C@@H](O)CN1CC2CC(C1)N2c1nc(OC[C@@H]2C[C@@H](F)CN2C)nc2c(F)c(-c3c(F)ccc4sc(N)c(C#N)c34)c3c(c12)COC3 [Example 367, 2-Amino-5-fluoro-4-[5-fluoro-3-[[(2S,4R)-4-fluoro-1-methyl-pyrrolidin-2-yl]methoxy]-1-[3-[(2R)-2-hydroxypropyl]-3,6-diazabicyclo[3.1.1]heptan-6-yl]-7,9-dihydrofuro[3,4-f]quinazolin-6-yl]benzothiophene-3-carbonitrile]	greater than 10 fold
Cc1cnc(-c2c3c(c4c(N5C6CCC5CN(C[C@@H](C)O)C6)nc(OC[C@@]56CCCN5C[C@H](F)C6)nc4c2F)COC3)c2c(C#N)c(N)sc12 [Example 173, 2-Amino-4-[5-fluoro-3-[[(2R,8S)-2-fluoro-1,2,3,5,6,7-hexahydropyrrolizin-8-yl]methoxy]-1-[3-[(2R)-2-hydroxypropyl]-3,8-diazabicyclo[3.2.1]octan-8-yl]-7,9-dihydrofuro[3,4-f]quinazolin-6-yl]-7-methyl-thieno[3,2-c]pyridine-3-carbonitrile]	greater than 10 fold
Cc1cnc(-c2c3c(c4c(N5C6CCC5CN(C)C6)nc(OC[C@@]56CCCN5C[C@H](F)C6)nc4c2F)COC3)c2c(C#N)c(N)sc12 [Example 132, 2-Amino-4-[5-fluoro-3-[[(2R,8S)-2-fluoro-1,2,3,5,6,7-hexahydropyrrolizin-8-yl]methoxy]-1-(3-methyl-3,8-diazabicyclo[3.2.1]octan-8-yl)-7,9-dihydrofuro[3,4-f]quinazolin-6-yl]-7-methyl-thieno[3,2-c]pyridine-3-carbonitrile]	greater than 10 fold
CCN1CC2CCC(C1)N2c1nc(OC[C@@]23CCCN2C[C@H](F)C3)nc2c(F)c(-c3ncc(F)c4sc(N)c(C#N)c34)c3c(c12)COC3 [Example 127, 2-Amino-4-[1-(3-ethyl-3,8-diazabicyclo[3.2.1]octan-8-yl)-5-fluoro-3-[[(2R,8S)-2-fluoro-1,2,3,5,6,7-hexahydropyrrolizin-8-yl]methoxy]-7,9-dihydrofuro[3,4-f]quinazolin-6-yl]-7-fluoro-thieno[3,2-c]pyridine-3-carbonitrile]	greater than 10 fold
N#Cc1c(N)sc2ccnc(-c3c4c(c5c(N6C7CCC6CN(CC6COC6)C7)nc(OC[C@@]67CCCN6C[C@H](F)C7)nc5c3F)COC4)c12 [Example 117, 2-Amino-4-[5-fluoro-3-[[(2R,8S)-2-fluoro-1,2,3,5,6,7-hexahydropyrrolizin-8-yl]methoxy]-1-[3-(oxetan-3-ylmethyl)-3,8-diazabicyclo[3.2.1]octan-8-yl]-7,9-dihydrofuro[3,4-f]quinazolin-6-yl]thieno[3,2-c]pyridine-3-carbonitrile]	greater than 10 fold
N#Cc1c(N)sc2c(F)cnc(-c3c4c(c5c(N6C7CCC6CN(CCOCCO)C7)nc(OC[C@@]67CCCN6C[C@H](F)C7)nc5c3F)COC4)c12 [Example 224, 2-Amino-7-fluoro-4-[5-fluoro-3-[[(2R,8S)-2-fluoro-1,2,3,5,6,7-hexahydropyrrolizin-8-yl]methoxy]-1-[3-[2-(2-hydroxyethoxy)ethyl]-3,8-diazabicyclo[3.2.1]octan-8-yl]-7,9-dihydrofuro[3,4-f]quinazolin-6-yl]thieno[3,2-c]pyridine-3-carbonitrile]	greater than 10 fold
